Data taken from the supplement of paper PMC8256030.
Several values for one entry are separate records, joined by “and”; a condition that tells them apart may be missing. Equal values may be shown once. The list shows a part of the results. This data set is noisy: repeats of one test often differ as much as different tests do.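 HEK293T cells were given each compound shortly before transfection with a reporter in which red mCherry is followed by the SARS-CoV-2 frameshift element and then GFP in the −1 frame, so GFP appears only after frameshifting.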

System: HEK293T
Experiment: percent viability (nuclei count) relative to control; higher = more viable cells
Conditions: 10 µM; 24 h

SMILES	percent viability
CN(C)c1cc(NC(=O)CNC(C)(C)C)c(O)c2c1C[C@H]1C[C@H]3[C@H](N(C)C)C(=O)C(C(N)=O)=C(O)[C@@]3(O)C(=O)C1=C2O [tigecycline]	246%
O=c1[nH]c(=O)n([C@H]2C[C@H](O)[C@@H](CO)O2)cc1F [floxuridine]	238% and 183%
CN(C)CCC(O)(c1ccccc1)c1ccccc1Cl (stereo not given) [clofedanol]	245%
C[C@@H](O[C@H]1OCCN(Cc2n[nH]c(=O)[nH]2)[C@H]1c1ccc(F)cc1)c1cc(C(F)(F)F)cc(C(F)(F)F)c1 [Aprepitant]	158% and 264%
CC[N+](C)(C)c1cccc(O)c1 [edrophonium chloride]	227%
CN1CCN(CCCCN2C(=O)CN(/N=C/c3ccc(-c4ccc(Cl)cc4)o3)C2=O)CC1 [azimilide]	147%
N=C(N)NC(=O)c1nc(Cl)c(N)nc1N [Amiloride]	170%
C[N+]1(C)[C@@H]2C[C@@H](OC(=O)C(O)(c3cccs3)c3cccs3)C[C@H]1[C@@H]1O[C@@H]12 [Tiotropium Bromide]	281%
CSc1ccc(OCc2ncc([N+](=O)[O-])n2C)cc1 [fexinidazole]	195%
CN(Cc1ccc(C(C)(C)C)cc1)Cc1cccc2ccccc12 [butenafine]	152%
CCN[C@@H]1C[C@H](N)[C@@H](O[C@H]2OC(CN)=CC[C@H]2N)[C@H](O)[C@H]1O[C@H]1OC[C@](C)(O)[C@H](NC)[C@H]1O	188%
CC=CC(=O)N(CC)c1ccccc1C [crotamiton]	296%
CCOC(=O)Nc1nc2ccccc2[nH]1 [lobendazole]	308%
C[C@@H](O)[C@H]1C(=O)N2C(C(=O)O)=C(S[C@@H]3CN[C@H](C(=O)N(C)C)C3)[C@H](C)[C@H]12 [meropenem]	84.4%
CCC(C(=O)NC(N)=O)c1ccccc1 (stereo not given) [pheneturide]	207%

No new results follow: entries from further up.
SMILES	percent viability
C[C@@H](O)[C@H]1C(=O)N2C(C(=O)O)=C(S[C@@H]3CN[C@H](C(=O)N(C)C)C3)[C@H](C)[C@H]12 [meropenem]	84.4%
CCC(C(=O)NC(N)=O)c1ccccc1 (stereo not given) [pheneturide]	207%
